The supplement of paper PMC10849652
Some of the results follow.

Protein sequences, listed by entry. Tags and fused reporters are not part of them. Lines headed by an entry give the natural chain unless they say otherwise; changes in a name come on top.
UniProt O95772: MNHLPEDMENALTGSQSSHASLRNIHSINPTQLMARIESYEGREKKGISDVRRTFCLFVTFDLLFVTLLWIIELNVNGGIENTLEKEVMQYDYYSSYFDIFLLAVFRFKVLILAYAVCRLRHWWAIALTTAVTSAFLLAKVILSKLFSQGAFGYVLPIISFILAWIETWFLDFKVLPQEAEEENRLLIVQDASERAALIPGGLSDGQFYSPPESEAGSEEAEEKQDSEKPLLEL
UniProt O43278: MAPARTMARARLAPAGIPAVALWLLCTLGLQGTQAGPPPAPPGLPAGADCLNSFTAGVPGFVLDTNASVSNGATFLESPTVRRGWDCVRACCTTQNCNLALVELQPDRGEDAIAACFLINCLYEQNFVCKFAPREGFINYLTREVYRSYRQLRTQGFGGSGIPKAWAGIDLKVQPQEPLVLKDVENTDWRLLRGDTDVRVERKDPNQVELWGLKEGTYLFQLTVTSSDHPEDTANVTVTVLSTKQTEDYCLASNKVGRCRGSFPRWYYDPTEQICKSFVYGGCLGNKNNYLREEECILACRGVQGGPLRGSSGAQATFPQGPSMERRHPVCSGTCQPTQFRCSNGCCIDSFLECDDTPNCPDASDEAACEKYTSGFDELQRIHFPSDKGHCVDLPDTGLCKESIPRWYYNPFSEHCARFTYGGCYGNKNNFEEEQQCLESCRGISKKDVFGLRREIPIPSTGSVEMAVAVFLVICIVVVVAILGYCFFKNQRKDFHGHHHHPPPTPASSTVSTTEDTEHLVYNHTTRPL
UniProt P15907: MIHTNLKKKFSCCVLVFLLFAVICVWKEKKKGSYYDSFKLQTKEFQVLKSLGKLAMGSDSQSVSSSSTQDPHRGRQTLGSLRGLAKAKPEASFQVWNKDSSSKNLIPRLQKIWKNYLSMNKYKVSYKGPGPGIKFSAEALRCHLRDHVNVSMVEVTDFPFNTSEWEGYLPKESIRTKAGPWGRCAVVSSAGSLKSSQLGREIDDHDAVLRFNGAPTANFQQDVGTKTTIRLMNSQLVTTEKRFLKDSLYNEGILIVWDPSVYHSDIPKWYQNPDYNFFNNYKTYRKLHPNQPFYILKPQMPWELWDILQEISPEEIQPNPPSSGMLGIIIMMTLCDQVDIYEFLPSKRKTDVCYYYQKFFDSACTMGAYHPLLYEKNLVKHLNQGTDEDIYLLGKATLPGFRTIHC
UniProt Q13247: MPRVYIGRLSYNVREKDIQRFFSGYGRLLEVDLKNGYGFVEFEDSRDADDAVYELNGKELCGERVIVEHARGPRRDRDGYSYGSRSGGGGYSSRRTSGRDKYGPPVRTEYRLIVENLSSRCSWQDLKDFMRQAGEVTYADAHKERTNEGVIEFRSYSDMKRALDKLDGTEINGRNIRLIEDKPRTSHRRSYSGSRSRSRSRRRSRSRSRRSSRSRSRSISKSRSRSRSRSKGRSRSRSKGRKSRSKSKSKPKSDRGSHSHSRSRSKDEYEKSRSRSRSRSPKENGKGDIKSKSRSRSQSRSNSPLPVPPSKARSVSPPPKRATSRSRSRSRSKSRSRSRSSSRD
UniProt Q9NP77: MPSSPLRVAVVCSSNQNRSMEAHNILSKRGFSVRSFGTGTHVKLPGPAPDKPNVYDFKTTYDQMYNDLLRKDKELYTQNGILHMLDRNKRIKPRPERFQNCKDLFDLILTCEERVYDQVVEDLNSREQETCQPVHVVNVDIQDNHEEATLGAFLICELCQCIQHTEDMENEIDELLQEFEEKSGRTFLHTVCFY
UniProt Q9NQZ5: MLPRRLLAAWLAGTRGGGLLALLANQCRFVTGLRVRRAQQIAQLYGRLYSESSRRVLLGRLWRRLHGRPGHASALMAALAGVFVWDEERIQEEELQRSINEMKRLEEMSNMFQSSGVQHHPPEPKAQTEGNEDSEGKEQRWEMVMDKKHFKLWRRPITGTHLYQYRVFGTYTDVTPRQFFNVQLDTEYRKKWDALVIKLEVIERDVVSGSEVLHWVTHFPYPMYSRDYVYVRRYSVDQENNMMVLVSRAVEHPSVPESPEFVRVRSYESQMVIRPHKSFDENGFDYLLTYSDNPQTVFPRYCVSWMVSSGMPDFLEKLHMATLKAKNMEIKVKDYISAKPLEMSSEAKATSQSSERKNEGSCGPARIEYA
UniProt Q9UQ35: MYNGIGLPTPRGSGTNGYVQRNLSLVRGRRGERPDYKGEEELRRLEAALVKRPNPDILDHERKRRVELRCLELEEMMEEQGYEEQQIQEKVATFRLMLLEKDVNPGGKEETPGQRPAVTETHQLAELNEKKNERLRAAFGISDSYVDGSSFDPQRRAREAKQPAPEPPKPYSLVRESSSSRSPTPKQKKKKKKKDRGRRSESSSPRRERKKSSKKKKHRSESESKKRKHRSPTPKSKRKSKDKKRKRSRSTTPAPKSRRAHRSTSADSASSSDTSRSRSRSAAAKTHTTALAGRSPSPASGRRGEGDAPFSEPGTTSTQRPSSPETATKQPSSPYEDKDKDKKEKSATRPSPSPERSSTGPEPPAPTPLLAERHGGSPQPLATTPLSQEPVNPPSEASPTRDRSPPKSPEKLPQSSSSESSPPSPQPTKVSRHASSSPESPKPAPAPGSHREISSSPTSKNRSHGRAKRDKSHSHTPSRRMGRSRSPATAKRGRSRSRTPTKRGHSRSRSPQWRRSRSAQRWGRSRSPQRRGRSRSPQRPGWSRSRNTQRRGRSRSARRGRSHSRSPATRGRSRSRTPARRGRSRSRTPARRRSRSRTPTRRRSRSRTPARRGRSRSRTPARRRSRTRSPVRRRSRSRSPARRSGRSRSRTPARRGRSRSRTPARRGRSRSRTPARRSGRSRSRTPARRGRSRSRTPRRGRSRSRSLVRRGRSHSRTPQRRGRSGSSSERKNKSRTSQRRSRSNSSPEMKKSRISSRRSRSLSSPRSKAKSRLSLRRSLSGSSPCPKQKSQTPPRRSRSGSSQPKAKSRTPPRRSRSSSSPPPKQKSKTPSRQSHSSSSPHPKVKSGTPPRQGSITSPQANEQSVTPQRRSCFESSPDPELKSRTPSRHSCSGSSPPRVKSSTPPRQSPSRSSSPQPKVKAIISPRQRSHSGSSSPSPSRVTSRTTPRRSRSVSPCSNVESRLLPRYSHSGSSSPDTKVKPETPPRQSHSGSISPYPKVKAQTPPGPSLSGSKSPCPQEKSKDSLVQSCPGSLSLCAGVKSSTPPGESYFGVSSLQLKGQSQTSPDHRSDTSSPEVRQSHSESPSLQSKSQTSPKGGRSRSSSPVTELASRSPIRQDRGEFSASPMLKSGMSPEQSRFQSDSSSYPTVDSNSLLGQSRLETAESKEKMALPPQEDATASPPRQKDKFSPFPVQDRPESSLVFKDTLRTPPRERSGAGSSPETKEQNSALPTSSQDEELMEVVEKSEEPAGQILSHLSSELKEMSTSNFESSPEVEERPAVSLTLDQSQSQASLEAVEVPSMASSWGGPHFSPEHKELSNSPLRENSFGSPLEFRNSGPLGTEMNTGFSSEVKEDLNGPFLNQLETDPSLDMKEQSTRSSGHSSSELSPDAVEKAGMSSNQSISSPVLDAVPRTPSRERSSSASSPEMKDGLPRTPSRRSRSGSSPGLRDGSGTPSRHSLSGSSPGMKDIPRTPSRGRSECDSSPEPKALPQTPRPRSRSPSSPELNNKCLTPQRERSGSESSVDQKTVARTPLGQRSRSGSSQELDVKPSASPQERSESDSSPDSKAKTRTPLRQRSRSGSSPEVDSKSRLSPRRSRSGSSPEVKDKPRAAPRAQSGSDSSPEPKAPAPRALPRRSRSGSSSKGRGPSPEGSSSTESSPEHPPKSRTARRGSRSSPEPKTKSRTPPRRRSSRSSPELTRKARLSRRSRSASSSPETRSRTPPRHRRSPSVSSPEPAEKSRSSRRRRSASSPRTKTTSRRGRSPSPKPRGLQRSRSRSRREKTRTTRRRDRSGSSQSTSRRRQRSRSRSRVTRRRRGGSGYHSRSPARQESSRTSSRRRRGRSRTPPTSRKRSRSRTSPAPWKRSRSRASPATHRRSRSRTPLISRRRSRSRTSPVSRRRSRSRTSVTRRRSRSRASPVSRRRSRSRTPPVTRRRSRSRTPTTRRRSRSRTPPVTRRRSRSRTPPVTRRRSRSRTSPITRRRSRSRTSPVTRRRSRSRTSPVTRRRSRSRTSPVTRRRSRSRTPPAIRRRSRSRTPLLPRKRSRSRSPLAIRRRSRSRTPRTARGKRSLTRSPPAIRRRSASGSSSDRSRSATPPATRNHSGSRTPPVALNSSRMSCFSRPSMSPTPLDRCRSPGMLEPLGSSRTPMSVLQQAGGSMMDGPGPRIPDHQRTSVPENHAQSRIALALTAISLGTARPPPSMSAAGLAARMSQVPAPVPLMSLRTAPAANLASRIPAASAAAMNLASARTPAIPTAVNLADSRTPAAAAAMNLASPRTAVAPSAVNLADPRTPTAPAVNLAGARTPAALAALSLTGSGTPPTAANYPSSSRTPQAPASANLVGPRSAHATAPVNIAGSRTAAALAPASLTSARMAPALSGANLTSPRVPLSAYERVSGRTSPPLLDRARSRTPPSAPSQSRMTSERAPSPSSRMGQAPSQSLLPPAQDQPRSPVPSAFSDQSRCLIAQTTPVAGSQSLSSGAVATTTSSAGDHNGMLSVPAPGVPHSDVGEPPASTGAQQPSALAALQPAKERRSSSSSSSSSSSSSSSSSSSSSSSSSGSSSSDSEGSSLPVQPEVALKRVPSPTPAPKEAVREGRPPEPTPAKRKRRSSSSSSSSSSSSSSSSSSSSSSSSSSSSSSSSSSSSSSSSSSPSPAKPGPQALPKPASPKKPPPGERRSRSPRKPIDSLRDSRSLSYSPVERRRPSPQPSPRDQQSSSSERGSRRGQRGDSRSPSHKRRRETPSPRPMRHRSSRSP
UniProt Q9BYN0: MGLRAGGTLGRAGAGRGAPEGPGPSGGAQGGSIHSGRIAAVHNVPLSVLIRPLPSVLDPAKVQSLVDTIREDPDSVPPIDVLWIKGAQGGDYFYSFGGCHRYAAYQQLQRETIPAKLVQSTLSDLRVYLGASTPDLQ
UniProt Q16385, whole entry, looked up: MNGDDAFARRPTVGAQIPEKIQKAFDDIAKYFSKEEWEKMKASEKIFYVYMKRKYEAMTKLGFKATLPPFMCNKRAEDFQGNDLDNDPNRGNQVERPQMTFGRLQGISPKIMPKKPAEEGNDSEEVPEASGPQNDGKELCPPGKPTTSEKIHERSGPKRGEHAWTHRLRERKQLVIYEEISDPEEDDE
UniProt Q14849, whole entry, looked up: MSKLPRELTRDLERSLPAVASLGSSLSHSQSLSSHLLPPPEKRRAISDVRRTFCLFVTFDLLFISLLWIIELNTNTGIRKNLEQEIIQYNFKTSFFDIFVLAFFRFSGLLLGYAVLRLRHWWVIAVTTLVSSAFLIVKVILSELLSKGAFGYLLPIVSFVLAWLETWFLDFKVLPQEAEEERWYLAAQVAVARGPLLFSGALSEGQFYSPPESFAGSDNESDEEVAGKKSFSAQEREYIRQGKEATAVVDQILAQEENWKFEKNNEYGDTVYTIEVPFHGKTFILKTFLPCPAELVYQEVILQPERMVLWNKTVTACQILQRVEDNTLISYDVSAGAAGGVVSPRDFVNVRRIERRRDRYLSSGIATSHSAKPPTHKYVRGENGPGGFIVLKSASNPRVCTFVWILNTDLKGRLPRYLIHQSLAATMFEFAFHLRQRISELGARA
UniProt O76094: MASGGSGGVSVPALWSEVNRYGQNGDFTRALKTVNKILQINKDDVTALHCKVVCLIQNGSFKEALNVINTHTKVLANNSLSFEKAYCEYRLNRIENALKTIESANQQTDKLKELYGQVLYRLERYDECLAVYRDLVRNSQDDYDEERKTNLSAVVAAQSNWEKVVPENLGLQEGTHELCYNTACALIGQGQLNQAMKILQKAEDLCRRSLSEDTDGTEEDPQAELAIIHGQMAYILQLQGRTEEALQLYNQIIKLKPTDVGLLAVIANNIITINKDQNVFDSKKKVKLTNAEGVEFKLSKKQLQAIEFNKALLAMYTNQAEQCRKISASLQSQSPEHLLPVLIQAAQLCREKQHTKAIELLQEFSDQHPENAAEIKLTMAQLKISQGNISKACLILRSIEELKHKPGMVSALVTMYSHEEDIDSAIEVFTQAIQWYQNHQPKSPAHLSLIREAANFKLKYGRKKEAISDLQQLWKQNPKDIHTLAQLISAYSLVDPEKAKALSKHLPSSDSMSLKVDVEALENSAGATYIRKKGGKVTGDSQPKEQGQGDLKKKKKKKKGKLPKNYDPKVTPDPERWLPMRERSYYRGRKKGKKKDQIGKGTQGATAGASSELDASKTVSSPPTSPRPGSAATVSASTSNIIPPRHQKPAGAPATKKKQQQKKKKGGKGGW

Experiments:
Experiment in all cases: log2 fold change, soluble protein after heating vs DMSO (PISA); higher = thermal stabilisation; K562 cells, 10 uM, 30 min; active = over 0.2 and 3.5 SD of the protein, either way, in both replicates (recomputed)
[1] = compound: CC1=C(C=C(C=C1)NC(=O)C2=CC(=CC=C2)C(C)(C)C#N)NC3=CC4=C(C=C3)N=CN(C4=O)C
Method in brief: (§1)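 Thermal stability values are relative to control samples and come from duplicates. They are expressed as log2 fold changes. For measurement, K562 cells (2×10^6 cells/mL) received 10 μM compound for 30 min, and aliquots were heated for 3 min over 48°C-58°C, pooled, and extracted at 4°C in PBS with 0.5% NP-40. Soluble protein, the supernatant after 21,000xg for 90 min, was quantified by TMTpro 16plex LC-MS/MS with equalised channel sums.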

[2] = compound: CC1=C(C=C(C=C1)NC(=O)C2=CC(=CC=C2)N(C)C)NC(=O)C3=CC=C(C=C3)O
Method in brief: as §1

[3] = compound: CC1=CC=C(C=C1)SC2=C3C=C(SC3=CN=C2)C(=O)N
Method in brief: as §1

[4] = compound: CC1=NC(=CC=C1)C2=C(N=C(N2)C(C)(C)C)C3=CC4=NC=CN=C4C=C3
Method in brief: as §1

Nexturastat A = compound: CCCCN(Cc1ccc(C(=O)NO)cc1)C(=O)Nc1ccccc1 [Nexturastat A]
Method in brief: as §1

vemurafenib = compound: CCCS(=O)(=O)Nc1ccc(F)c(C(=O)c2c[nH]c3ncc(-c4ccc(Cl)cc4)cc23)c1F [vemurafenib]
Method in brief: as §1

[5] = compound: CCCS(=O)(=O)Nc1ccc(F)c(C(=O)c2c[nH]c3ncc(Cl)cc23)c1F
Method in brief: as §1

[6] = compound: CCCc1cc(C)[nH]c(=O)c1CNC(=O)c1cc(-c2ccnc(N3CCN(C)CC3)c2)cc2c1cnn2C(C)C
Method in brief: as §1

givinostat = compound: CCN(CC)Cc1ccc2cc(COC(=O)Nc3ccc(C(=O)NO)cc3)ccc2c1 [givinostat]
Method in brief: as §1

barasertib = compound: CCN(CCCOc1ccc2c(Nc3cc(CC(=O)Nc4cccc(F)c4)[nH]n3)ncnc2c1)CCOP(=O)(O)O [barasertib]
Method in brief: as §1

[7] = compound: CC[C@@H]1C(=O)N(C)c2cnc(Nc3ccc(C(=O)NC4CCN(C)CC4)cc3OC)nc2N1C1CCCC1
Method in brief: as §1

volasertib = compound: CC[C@@H]1C(=O)N(C)c2cnc(Nc3ccc(C(=O)N[C@H]4CC[C@H](N5CCN(CC6CC6)CC5)CC4)cc3OC)nc2N1C(C)C [volasertib]
Method in brief: as §1

[8] = compound: CC[C@H](C)N1C=C(C2=C(C=C(C=C21)C3=CN=C(C=C3)N4CCNCC4)C(=O)NCC5=C(C=C(NC5=O)C)C)C
Method in brief: as §1

epoxomicin = compound: CC[C@H](C)[C@@H](C(=O)N[C@@H]([C@@H](C)O)C(=O)N[C@@H](CC(C)C)C(=O)[C@]1(CO1)C)NC(=O)[C@H]([C@@H](C)CC)N(C)C(=O)C [epoxomicin]
Method in brief: as §1

[9] = compound: CCn1cc(-c2ccnc3[nH]c(-c4cccc(CN(C)C)c4)cc23)c(-c2ccc(NC(=O)N(C)C)cc2)n1
Method in brief: as §1

[10] = compound: CN(C)CC(=O)Nc1ccc2[nH]c(=O)c3ccccc3c2c1
Method in brief: as §1

[11] = compound: CN1C2=C(C3=C1C(=O)N(N=C3)CC4=CC(=CC=C4)N)SC(=C2)S(=O)C
Method in brief: as §1

[12] = compound: CN1CCC(CNc2ccc3ncc(-c4cccc(OC(F)(F)F)c4)n3n2)CC1
Method in brief: as §1

[13] = compound: CCn1c(C(=O)N(C2CC2)C2CC2)cc2c3c(ncn3C)c(Nc3cc(C)n(C)n3)nc21
Method in brief: as §1

rosiglitazone = compound: CN(CCOC1=CC=C(C=C1)C[C@H]2C(=O)NC(=O)S2)C3=CC=CC=N3 (racemic) [rosiglitazone]
Method in brief: as §1

Measured: log2 fold change

STARD3NL (UniProt O95772)
inactive: [1] 0.01 | [2] -0.002 | [3] 0.056 | [4] 0.076 | Nexturastat A -0.12 | vemurafenib 0.02 | [5] 0.048 | [6] -0.021 | givinostat 0.009 | barasertib -0.027 | [7] 0.037 | volasertib -0.022 | [8] -0.036 | epoxomicin -0.085 | [9] -0.014 | [10] -0.068 | [11] -0.058
active: [12] -0.371

SPINT1 (UniProt O43278)
inactive: [1] -0.018 | [2] -0.023 | [3] 0.042 | [4] -0.113 | Nexturastat A 0.07 | vemurafenib -0.068 | [5] -0.005 | givinostat 0.066 | volasertib -0.107 | epoxomicin -0.035 | [13] 0.003 | [9] -0.154 | [10] -0.179 | [12] 0.049

ST6GAL1 (UniProt P15907)
active: [7] -0.221
inactive: [1] 0.025 | [2] -0.032 | [3] -0.028 | [4] -0.064 | Nexturastat A -0.031 | vemurafenib -0.1 | [5] -0.069 | [6] 0.047 | givinostat -0.005 | barasertib -0.014 | volasertib -0.257 | [8] 0.003 | epoxomicin -0.066 | [9] 0.01 | [10] 0.041 | [11] -0.057 | [12] -0.149

SPTBN4 (UniProt Q9H254)
inactive: [1] -0.013 | [2] -0.037 | [3] 0.144 | [4] 0.025 | Nexturastat A 0.039 | vemurafenib -0.027 | [5] -0.036 | [6] -0.12 | givinostat 0.112 | barasertib -0.013 | [7] 0.051 | volasertib -0.293 | [8] -0.025 | epoxomicin -0.018 | [9] -0.1 | [10] 0.171 | [11] 0.011 | [12] 0.153

SRSF6 (UniProt Q13247)
inactive: [1] -0.012 | [3] -0.16 | [4] 0.126 | Nexturastat A 0.248 | vemurafenib -0.024 | [5] -0.058 | [6] 0.104 | givinostat 0.019 | barasertib -0.059 | [7] 0.011 | volasertib 0.174 | [8] 0.116 | epoxomicin -0.181 | [9] 0.028 | [10] -0.08 | [11] 0.207 | [12] 0.315

SRC isoform 2 (UniProt P12931)
inactive: [1] -0.006 | [2] 0.022 | [3] -0.016 | [4] -0.06 | Nexturastat A -0.075 | vemurafenib 0.068 | [5] 0.069 | [6] -0.06 | givinostat -0.091 | barasertib -0.01 | [7] 0.079 | volasertib -0.03 | [8] 0.108 | epoxomicin -0.16 | [9] -0.066 | [10] -0.032 | [11] -0.002 | [12] -0.149

SSU72 (UniProt Q9NP77)
inactive: [1] 0.069 | [3] 0.143 | [4] 0.187 | Nexturastat A 0.011 | vemurafenib 0.147 | [5] 0.086 | [6] -0.1 | givinostat 0.247 | barasertib -0.111 | volasertib -0.444 | epoxomicin 0.116 | [13] -0.219 | [9] -0.077 | [10] 0.182 | rosiglitazone 0.028 | [11] 0.028 | [12] -0.449

SSBP4 (UniProt Q9BWG4)
inactive: [1] 0.056 | [2] -0.017 | [3] -0.133 | [4] 0.003 | [5] 0.021 | [6] -0.036 | givinostat -0.042 | barasertib 0.053 | [7] 0 | volasertib -0.056 | [8] -0.036 | [9] -0.009 | [11] -0.238 | [12] 0.036

STARD7 (UniProt Q9NQZ5)
inactive: [1] 0.061 | [2] 0.015 | [3] 0.004 | [4] -0.01 | Nexturastat A -0.053 | vemurafenib 0 | [5] -0.033 | [6] 0.024 | givinostat -0.029 | barasertib -0.008 | [7] -0.07 | volasertib -0.032 | [8] 0.007 | epoxomicin 0.024 | [9] -0.123 | [10] 0.012 | [11] 0.012 | [12] -0.158

2 entries picked at random from those above:
STARD7 (UniProt Q9NQZ5)
inactive: [1] 0.061 | [2] 0.015 | [3] 0.004 | [4] -0.01 | Nexturastat A -0.053 | vemurafenib 0 | [5] -0.033 | [6] 0.024 | givinostat -0.029 | barasertib -0.008 | [7] -0.07 | volasertib -0.032 | [8] 0.007 | epoxomicin 0.024 | [9] -0.123 | [10] 0.012 | [11] 0.012 | [12] -0.158

SSBP4 (UniProt Q9BWG4)
inactive: [1] 0.056 | [2] -0.017 | [3] -0.133 | [4] 0.003 | [5] 0.021 | [6] -0.036 | givinostat -0.042 | barasertib 0.053 | [7] 0 | volasertib -0.056 | [8] -0.036 | [9] -0.009 | [11] -0.238 | [12] 0.036

Next records follow:

SRRM2 (UniProt Q9UQ35)
inactive: [1] -0.022 | [2] 0.01 | [3] -0.067 | [4] 0.147 | Nexturastat A 0.156 | vemurafenib 0.068 | [5] 0.007 | [6] 0.01 | givinostat 0.082 | barasertib -0.041 | [7] -0.025 | volasertib 0.009 | [8] 0.046 | epoxomicin -0.071 | [9] -0.072 | [10] 0.053 | [11] 0.062 | [12] -0.222

SSBP3 (UniProt Q9BWW4)
inactive: [1] 0.011 | [2] -0.019 | [3] -0.009 | Nexturastat A -0.065 | vemurafenib -0.001 | [5] 0.031 | [6] -0.013 | givinostat -0.009 | barasertib 0.021 | [7] -0.041 | volasertib 0.036 | [8] -0.027 | epoxomicin 0.1 | [13] 0.016 | [9] -0.037 | [10] 0.085 | rosiglitazone -0.074 | [11] 0.097 | [12] 0.098

SRXN1 (UniProt Q9BYN0)
inactive: [1] -0.149 | [2] 0.01 | [3] 0.04 | [4] 0.089 | Nexturastat A -0.036 | vemurafenib 0.142 | [5] 0.017 | [6] -0.027 | barasertib 0.012 | [7] -0.031 | volasertib -0.083 | [8] 0.027 | epoxomicin 0.069 | [9] 0.159 | [10] 0.046 | [12] -0.199

SSX2 (UniProt Q16385)
inactive: [1] 0.021 | [2] -0.013 | [3] 0.011 | [4] 0.073 | vemurafenib 0.046 | [5] 0.035 | [6] -0.016 | givinostat -0.099 | barasertib 0.018 | [7] -0.046 | volasertib -0.102 | [8] 0.071 | epoxomicin 0.131 | [9] -0.036 | [10] 0.007 | [11] -0.06 | [12] 0.021
active: Nexturastat A -0.254

STARD3 (UniProt Q14849)
active: [12] -0.386
inactive: [1] 0.103 | [2] 0.075 | [3] -0.027 | [4] 0.036 | Nexturastat A -0.048 | vemurafenib 0.052 | [5] -0.059 | [6] 0 | givinostat 0.011 | barasertib 0.016 | volasertib 0.115 | [8] 0.091 | epoxomicin -0.019 | [9] 0.039 | [10] -0.037 | [11] -0.064

SPIRE2 (UniProt Q8WWL2)
inactive: [1] 0.155 | [2] 0.455 | [4] 0.244 | Nexturastat A -0.616 | barasertib -0.109 | [7] -0.023 | epoxomicin -0.866 | [9] 0.041 | rosiglitazone -0.033 | [11] 0.222 | [12] 0.221

SRP72 (UniProt O76094)
inactive: [1] 0.024 | [2] -0.01 | [3] 0.034 | [4] -0.009 | Nexturastat A 0.171 | vemurafenib 0.037 | [5] 0.09 | [6] 0.046 | givinostat 0.143 | barasertib 0.078 | [7] -0.093 | volasertib -0.518 | [8] 0.119 | epoxomicin 0.001 | [9] -0.034 | [10] 0.03 | [11] 0.119 | [12] -0.168

SPTAN1 isoform 3 (UniProt Q13813)
inactive: vemurafenib 0.039 | [10] 0.117
